Some of the results follow.

Sequences of proteins named here, by UniProt entry; tags and fusion partners are left off.
UniProt Q0JBA9, entry or part of it: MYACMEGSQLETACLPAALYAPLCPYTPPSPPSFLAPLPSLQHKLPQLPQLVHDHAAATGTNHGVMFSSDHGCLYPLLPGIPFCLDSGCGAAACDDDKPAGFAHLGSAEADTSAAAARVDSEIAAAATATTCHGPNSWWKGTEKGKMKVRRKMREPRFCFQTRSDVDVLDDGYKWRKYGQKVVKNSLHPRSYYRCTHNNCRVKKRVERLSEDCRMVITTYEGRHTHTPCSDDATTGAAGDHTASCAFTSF

In this test the target is OsWRKY34 (Oryza sativa, UniProt Q0JBA9 1-250). In words: protein-binding microarray (RPBM); PBS, 2% BSA, 51.3 ng/ul salmon testes DNA, 50 uM zinc acetate, 200 nM TF, 25 C, 1 h; high values mean tight binding. Conditions: protein: recombinant; tags: N-terminal polyhistidine and DsRed monomer fusion (pET32a); label: CyDye5-dUTP incorporated in the synthesized complementary strand; 3' TTTTT single-stranded linker to array surface; dsDNA, one strand shown. In outline: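 An Axon 4000B scanner gave the binding signal as per-feature fluorescence intensity in arbitrary units. This followed washing of a custom Agilent array that had been incubated for 1 h at 25 °C with 200 nM protein in PBS, 2% BSA, salmon testes DNA and 50 µM zinc acetate. The proteins were transcription factors fused at the N-terminus to polyhistidine and DsRed, expressed in E. coli BL21-CodonPlus and purified on Ni–NTA.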
In the case of “AAAATCCCACCCGCTTCTTTCTTCTCCGAATTTTCCCTTTCGGAGTCACCTAGTGCAG”, the binding signal is 10700 fluorescence intensity (a.u.).
As to “CCTGGTCTTTGATTGGTCCACGTGGCGCAGCGAGAATTCACGGAGTCACCTAGTGCAG”, the binding signal is 8230 fluorescence intensity (a.u.).
As for “GCCTGCCGCCCTCCCATCGCCGCTCCGCCCGCCGACTGTCCGGAGTCACCTAGTGCAG”, the binding signal is 8490 fluorescence intensity (a.u.).
The figure for “GCTGAACAGGGGAGGGGCGGCGATCTCTATCTGGCGAGCACGGAGTCACCTAGTGCAG” is 13300 fluorescence intensity (a.u.).
As to “ACTCCGTTGTCTCCGCCTCCGATCTCCGGCGACGAGCGGCCGGAGTCACCTAGTGCAG”, the binding signal is 8650 fluorescence intensity (a.u.).
For “CCCACACCACCTCGCCCAATTAAACCCTCACCCATTCTTTCGGAGTCACCTAGTGCAG”, the binding signal was 9140 fluorescence intensity (a.u.).
The figure for “ACTGCGTACGCACTGCCTGCATATATATTTTTAATTGGGACGGAGTCACCTAGTGCAG” is 8380 fluorescence intensity (a.u.).
The same measure for “TCATTCAATGAGTAACGGTATAATTATTTTTTTCTCAACCCGGAGTCACCTAGTGCAG”: 8810 fluorescence intensity (a.u.); for “CACTCACCCAGTTTTGCTGCTGCTGCTGCTCGTCTTCCTCCGGAGTCACCTAGTGCAG”: 8390 fluorescence intensity (a.u.).
The same measure for “AATTGACTGGTTTAATCTCTGTTCGTACCCAAAATATAGCCGGAGTCACCTAGTGCAG”: 8840 fluorescence intensity (a.u.); for “GCCCGCCACGGCCACGCGCCAGTAGCTGCAGCGTTGTCTCCGGAGTCACCTAGTGCAG”: 8580 fluorescence intensity (a.u.); for “CTCGCTAACTCACAAGCACAATCCTAACACATTCTCATAACGGAGTCACCTAGTGCAG”: 8760 fluorescence intensity (a.u.).
As for “TTTTGACATTAATCTCTTGGTGTTCTTCTCTTTGTCTGCTCGGAGTCACCTAGTGCAG”, the binding signal is 8870 fluorescence intensity (a.u.).
Consider “TTTAATTAATCCCGTCTCCTCATTCGTCGCCGCCCTCGCACGGAGTCACCTAGTGCAG”, for which the binding signal is 8540 fluorescence intensity (a.u.).
As to “TAGCCATTTTTCTCCTCGGTTTCTCCTCTCCTCAACTCAACGGAGTCACCTAGTGCAG”, the binding signal was 8940 fluorescence intensity (a.u.).
As for “GCGCTACGGACGGAAGAGACGGAGTGGCACGGAATAAAGACGGAGTCACCTAGTGCAG”, the binding signal was 61600 fluorescence intensity (a.u.).
Take “TCGTCGGCTTCCTCTCGCCGCACCCATCGATATCCATCTCCGGAGTCACCTAGTGCAG”: the binding signal was 9400 fluorescence intensity (a.u.).
The figure for “CGTATCACCCACTCTCCTTTTAATGTTATTAGCATTGACCCGGAGTCACCTAGTGCAG” is 10000 fluorescence intensity (a.u.); for “CAAAGAGGTGACCATCCGGTTTCGTCTCCGTTTCGTCTTCCGGAGTCACCTAGTGCAG” it is 8070 fluorescence intensity (a.u.); for “CTAATTAGTACTGCAATTTTGGGTCCTTGGGTTGTTAGAACGGAGTCACCTAGTGCAG” it is 16900 fluorescence intensity (a.u.).
As to “TCTTCTGTCAAAAAGACACTACATTCTCTTATACCCATCACGGAGTCACCTAGTGCAG”, the binding signal was 9560 fluorescence intensity (a.u.).
On to “CCATCGCCGAGCAGTCAACGAGCAAGTTAAATTCGCAGCACGGAGTCACCTAGTGCAG”, for which the binding signal was 10700 fluorescence intensity (a.u.).
With “TCAAGCTTCTGTTTTACTACTAGTACAATCCTTTTTTTTTCGGAGTCACCTAGTGCAG”, the binding signal was 12400 fluorescence intensity (a.u.).
For “TCCTCCTCGTGCTCGCCCTCGCCGCGCTCGCCGAGGCCCTCGGAGTCACCTAGTGCAG”, the binding signal was 9330 fluorescence intensity (a.u.).
The figure for “ACGATCCAGACAGGCAGACAAGCAGATTGACCGATTCACCCGGAGTCACCTAGTGCAG” is 8510 fluorescence intensity (a.u.); for “CATATTTGCATCATCGTTCCACTTATACTTATTCGAGCTACGGAGTCACCTAGTGCAG” it is 9460 fluorescence intensity (a.u.); for “ACCTAGAAGTTTCAACCGTCGTTGACTATGACAACAGTCGCGGAGTCACCTAGTGCAG” it is 11700 fluorescence intensity (a.u.).
The same measure for “TGTACTAAAAAGTCAACGGCGTCAAACATTTCGAAACGGACGGAGTCACCTAGTGCAG”: 8400 fluorescence intensity (a.u.); for “GTGGGGTTTGTTTTTTCTCCGAGCGGCCCCGTTGAGACTTCGGAGTCACCTAGTGCAG”: 13600 fluorescence intensity (a.u.); for “GGAACGTGGCAACTGACACGTCTCGACCTTTTTTGTTGCACGGAGTCACCTAGTGCAG”: 8420 fluorescence intensity (a.u.).
As for “ATTTTGCATGGGGCATGTGTGAAGTGTCCTACTAAATTTTCGGAGTCACCTAGTGCAG”, the binding signal was 9350 fluorescence intensity (a.u.).
The same measure for “CTCCTTAACCTGCTCCATCAGCGCACCCCACACGCACTTCCGGAGTCACCTAGTGCAG”: 10400 fluorescence intensity (a.u.); for “AACGTACCACTCCCGTGGGCCGGACCAACACTCCTTCCCACGGAGTCACCTAGTGCAG”: 9510 fluorescence intensity (a.u.).
As for “CATCTTCGCTTAGGCTTCGACTCCTTGGTCCTCCTAGTCTCGGAGTCACCTAGTGCAG”, the binding signal is 9840 fluorescence intensity (a.u.).
On to “CCTCTCCGCACCTTAACTCCTTCGCTCTCCGCCCACTTCCCGGAGTCACCTAGTGCAG”, for which the binding signal was 10100 fluorescence intensity (a.u.).
The figure for “CCTTTTGCTTCCTTTTAAGCATTGCTTTTCCTGGCCATCCCGGAGTCACCTAGTGCAG” is 8970 fluorescence intensity (a.u.); for “CCCGACTACGGCTACATCGACCACGGCTACTCTACGCACGCGGAGTCACCTAGTGCAG” it is 8780 fluorescence intensity (a.u.).
Regarding “TCCCTGTTTTCCTGTGTCTTTCTCCACCTCCTCATATATCCGGAGTCACCTAGTGCAG”, the binding signal was 8620 fluorescence intensity (a.u.).
In the case of “GGGGAGGCCGGATCTGCGGGGAGGGGCATGGGGTGACCAGCGGAGTCACCTAGTGCAG”, the binding signal was 15900 fluorescence intensity (a.u.).
The same measure for “AATTCCCATGCTCTCTCATCCTTCTCTTCCATTCCCAGCTCGGAGTCACCTAGTGCAG”: 8660 fluorescence intensity (a.u.); for “TTGTTTTTATCTATGTTTAATGCTTCATATATGTGCACAACGGAGTCACCTAGTGCAG”: 8190 fluorescence intensity (a.u.).
Take “GGTTTATTTGGGACAGGTGGGAGGTTGGTAAGTGAGAATACGGAGTCACCTAGTGCAG”: the binding signal was 9080 fluorescence intensity (a.u.).

For the origin of these results see article PMC7819943, “Rice protein-binding microarrays: a tool to detect cis-acting elements near promoter regions in rice”.
